Experimental data: PubChem BioAssay AID1259308 (NCATS, 2017)

Test: 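Genes whose loss raises luciferase production in HEK293 cells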 (primary screen)
System: human HEK293 embryonic kidney cells stably expressing firefly luciferase (HEK-CMV-Luc2-Hygro)
Reagents: single siRNA against human genes, 0.8 pmol siRNA per well
Timing: 72 h
Measurement: 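Luciferase light (ONE-Glo) measured on one replicate plate set and viability (CellTiter-Glo) on the other, scaled to a negative control siRNA, with robust z-scores and luciferase per cell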
Reading the numbers: total luciferase, z-score: higher = more reporter protein produced
Rule for the call: 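Active when the median/MAD z-score for overall luciferase is greater than 3; a gene was taken forward for validation with new siRNAs if at least two of its three siRNAs passed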
Calls: active = raised luciferase; inactive = no rise
The deposit covers about 59,000 reagents; this is a random part of them. Of all reagents, about 1,510 (2.6%) got an active call. 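Calls use total luciferase alone and ignore viability, so some active siRNAs may act by altering cell number.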 A number with no mark means an inactive call. Reagents against one gene are numbered here. Further read-outs or replicates are left out here.

KNCN (kinocilin) #1 gave total luciferase, z-score -0.717.
Silencing of KNCN (kinocilin) #2 resulted in: total luciferase, z-score -1.61.
For KNCN (kinocilin) #3 the deposit lists total luciferase, z-score 0.617.
Against ZBED1P1 (zinc finger BED-type containing 1 pseudogene 1) #1, the values are total luciferase, z-score 1.28.
ZBED1P1 (zinc finger BED-type containing 1 pseudogene 1) #2 gave total luciferase, z-score -0.0748.
Depletion of ZBED1P1 (zinc finger BED-type containing 1 pseudogene 1) #3 came out at: total luciferase, z-score 0.237.
Silencing of SNX21 (sorting nexin family member 21) #1 came out at: total luciferase, z-score 2.61.
SNX21 (sorting nexin family member 21) #2 gave total luciferase, z-score 0.959.
With knock-down of SNX21 (sorting nexin family member 21) #3, the record shows total luciferase, z-score -0.906.
After knock-down of PDE7A (phosphodiesterase 7A) #1, the record shows total luciferase, z-score 0.679.
PDE7A (phosphodiesterase 7A) #2 scored total luciferase, z-score 0.488.
For PDE7A (phosphodiesterase 7A) #3, the values are total luciferase, z-score 0.714.
With knock-down of PLAAT3 (phospholipase A and acyltransferase 3) #1, the record shows total luciferase, z-score 0.5.
Silencing of PLAAT3 (phospholipase A and acyltransferase 3) #2 came out at: total luciferase, z-score 1.77.
For PLAAT3 (phospholipase A and acyltransferase 3) #3 the deposit lists total luciferase, z-score -0.507.
APOLD1 (apolipoprotein L domain containing 1) #1 scored total luciferase, z-score -1.08.
APOLD1 (apolipoprotein L domain containing 1) #2 scored total luciferase, z-score 0.928.
Knock-down of APOLD1 (apolipoprotein L domain containing 1) #3 resulted in: total luciferase, z-score -1.
After knock-down of USP1 (ubiquitin specific peptidase 1) #1, the record shows total luciferase, z-score 0.467.
USP1 (ubiquitin specific peptidase 1) #2 showed total luciferase, z-score -1.06.
With knock-down of USP1 (ubiquitin specific peptidase 1) #3, the record shows total luciferase, z-score -0.877.
ZMYND12 (zinc finger MYND-type containing 12) #1 scored total luciferase, z-score 0.761.
After knock-down of ZMYND12 (zinc finger MYND-type containing 12) #2, the record shows total luciferase, z-score -2.41.
With knock-down of ZMYND12 (zinc finger MYND-type containing 12) #3, the screen gave total luciferase, z-score 1.01.
With knock-down of KSR2 (kinase suppressor of ras 2) #1, the record shows total luciferase, z-score 0.991.
Against KSR2 (kinase suppressor of ras 2) #2, the values are total luciferase, z-score -0.585.
KSR2 (kinase suppressor of ras 2) #3 gave total luciferase, z-score 3.12 (active).
Knock-down of IGF2BP3 (insulin like growth factor 2 mRNA binding protein 3) #1 came out at: total luciferase, z-score -2.43.
For IGF2BP3 (insulin like growth factor 2 mRNA binding protein 3) #2, the entry reads total luciferase, z-score -0.779.
IGF2BP3 (insulin like growth factor 2 mRNA binding protein 3) #3 showed total luciferase, z-score -0.0615.
Depletion of NIT2 (nitrilase family member 2) #1 resulted in: total luciferase, z-score 0.897.
With knock-down of NIT2 (nitrilase family member 2) #2 the results were total luciferase, z-score -0.552.
Depletion of NIT2 (nitrilase family member 2) #3 resulted in: total luciferase, z-score 1.21.
Against BBS1 (Bardet-Biedl syndrome 1) #1, the entry reads total luciferase, z-score -0.999.
After knock-down of BBS1 (Bardet-Biedl syndrome 1) #2, the record shows total luciferase, z-score 2.05.
Against BBS1 (Bardet-Biedl syndrome 1) #3 the deposit lists total luciferase, z-score 2.12.
For PURB (purine rich element binding protein B) #1, the entry reads total luciferase, z-score 0.971.
Knock-down of PURB (purine rich element binding protein B) #2 resulted in: total luciferase, z-score 1.25.
Knock-down of PURB (purine rich element binding protein B) #3 gave: total luciferase, z-score 1.26.
After knock-down of RAD21-AS1 (RAD21 antisense RNA 1) #1, the record shows total luciferase, z-score 0.69.
For RAD21-AS1 (RAD21 antisense RNA 1) #2, the entry reads total luciferase, z-score -1.17.
Against RAD21-AS1 (RAD21 antisense RNA 1) #3, the entry reads total luciferase, z-score 0.869.
